Paper PMC8672621
No constants are given. Whether binding was seen depends on the method and setting. In cells and extracts the contact can be indirect. Some results given as binding are weak or reduced against the parent protein; the word gives no strength. Where a sequence is shown, tags or fusion partners need not be part of it.

Amino acid sequences for entries named in this document (tags omitted). Residues count along the entry.
UniProt Q01974, residues 34-943: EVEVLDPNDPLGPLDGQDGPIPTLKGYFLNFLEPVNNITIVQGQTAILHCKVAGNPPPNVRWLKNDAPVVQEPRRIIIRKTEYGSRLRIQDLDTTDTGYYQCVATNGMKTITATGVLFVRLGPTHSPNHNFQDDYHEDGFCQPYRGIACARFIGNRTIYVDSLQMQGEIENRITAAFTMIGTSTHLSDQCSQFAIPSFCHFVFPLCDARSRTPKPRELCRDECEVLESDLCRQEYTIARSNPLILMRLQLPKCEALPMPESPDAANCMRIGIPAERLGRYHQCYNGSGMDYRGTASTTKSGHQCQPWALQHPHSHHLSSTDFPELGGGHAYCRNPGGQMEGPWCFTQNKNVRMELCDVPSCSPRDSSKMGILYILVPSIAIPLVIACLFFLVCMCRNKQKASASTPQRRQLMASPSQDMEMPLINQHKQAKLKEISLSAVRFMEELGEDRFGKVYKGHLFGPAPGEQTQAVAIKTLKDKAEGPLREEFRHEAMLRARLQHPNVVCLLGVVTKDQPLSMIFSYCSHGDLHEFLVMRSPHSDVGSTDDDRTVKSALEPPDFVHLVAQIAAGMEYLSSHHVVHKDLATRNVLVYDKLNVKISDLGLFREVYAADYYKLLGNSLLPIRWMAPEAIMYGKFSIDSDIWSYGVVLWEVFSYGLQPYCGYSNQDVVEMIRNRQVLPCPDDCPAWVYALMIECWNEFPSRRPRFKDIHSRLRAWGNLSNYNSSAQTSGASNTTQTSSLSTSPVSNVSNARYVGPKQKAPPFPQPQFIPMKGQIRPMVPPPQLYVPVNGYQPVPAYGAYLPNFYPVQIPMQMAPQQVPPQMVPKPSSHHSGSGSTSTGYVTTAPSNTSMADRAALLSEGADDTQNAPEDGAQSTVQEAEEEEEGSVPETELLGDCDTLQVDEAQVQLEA

Target: T1, V5-tagged active WNT11 (human) (UniProt O96014)
T1 sequence: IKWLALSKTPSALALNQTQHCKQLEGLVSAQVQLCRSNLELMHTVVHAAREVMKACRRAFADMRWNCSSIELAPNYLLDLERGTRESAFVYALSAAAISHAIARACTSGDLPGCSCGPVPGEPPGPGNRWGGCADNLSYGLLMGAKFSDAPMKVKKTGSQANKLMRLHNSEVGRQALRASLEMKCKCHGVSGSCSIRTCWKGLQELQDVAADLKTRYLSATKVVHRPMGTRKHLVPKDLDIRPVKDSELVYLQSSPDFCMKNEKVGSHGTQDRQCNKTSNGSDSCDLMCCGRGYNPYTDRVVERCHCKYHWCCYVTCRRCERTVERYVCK
Assay: co-IP; MCF-7 cells expressing ROR2 constructs transfected with V5-WNT11; 24 h later proteins crosslinked 30 min with 1 mM DSS in PBS + 1 mM MgCl2; lysis in 50 mM Tris/HCl pH 8.0, 150 mM NaCl, 1% NP-40; 500 ug protein with 1 ug V5 antibody or normal rabbit IgG 16 h at 4 °C, protein A/G agarose; ROR2 detected by western blot

binding: binds
Substance: human ROR2, full length (pROR2-FL) (from UniProt Q01974 34-943) (receptor)
